Some entries share one result that the patent states for a list of compounds. At least one structure is not confirmed: it was looked up by name or label, or the drawing left a doubt.
Assay: Plasma free fraction (f1) and filter retention by ultrafiltration
Type: in vitro ADME, baboon
Settings: activity remaining on filter, radioligand dissolved in saline; mean ± SD of four experiments
Protocol: Plasma and ultrafiltrate activities were counted, and f1 was calculated as the ratio of ultrafiltrate activity to total plasma activity. Triplicate aliquots of the radioligand in pH 7.4 Tris buffer were also processed to determine the filter retention of free tracer.

For CN([11CH3])Cc1ccccc1Sc1ccc(CF)cc1N [[^11C]AFM, [^11C]2-[2-(Dimethylaminomethyl)phenylthio]-5-fluoromethylphenylamine], the Filter retention was under 20%.

— US20110097274A1, “Carbon-11 and fluorine-18 labeled radioligands for positron emission tomography (PET) imaging for the brain serotonin transporters” (priority 2002, published 2011)
